# Measured values published in US20130164256A1.
# By UniProt entry, the sequences of proteins in these tests, tags left out. Where a name states a change or a piece, a line headed by the entry shows the natural chain unless it says otherwise.
# UniProt P01375: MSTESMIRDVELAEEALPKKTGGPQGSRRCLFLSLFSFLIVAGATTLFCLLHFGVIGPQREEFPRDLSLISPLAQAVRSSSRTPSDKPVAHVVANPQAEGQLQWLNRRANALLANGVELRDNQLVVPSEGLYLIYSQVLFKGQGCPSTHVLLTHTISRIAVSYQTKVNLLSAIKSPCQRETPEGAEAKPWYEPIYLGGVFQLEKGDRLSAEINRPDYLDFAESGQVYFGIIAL
# Results are given in words; binding and its absence hold for the method and conditions named. Some entries that bind do so weakly or less than the wild type.
# B1: AE11-5 (antibody, V domains shown)
# VH: EVQLVQSGAEVKKPGSSAKVSCKASGGTFSSYAISWVRQAPGQGLEWMGGIIPILGTANYAQKFLGRVTITADESTSTVYMELSSLRSEDTAVYYCARGLYYDPTRADYWGQGTLVTVSS
# VL: DIVMTQSPDFHSVTPKEKVTITCRASQSIGSSLHWYQQKPDQSPKLLIRHASQSISGVPSRFSGSGSGTDFTLTIHSLEAEDAATYYCHQSSSSPPPTFGQGTQVEIK
# B2: TNF-JK1 (antibody, V domains shown)
# VH: EVQLVESGGGLVQPGGSLRLSCATSGFTFNNYWMSWVRQAPGKGLEWVANINHDESEKYYVDSAKGRFTISRDNAEKSLFLQMNSLRAEDTAVYYCARIIRGRVGFDYYNYAMDVWGQGTLVTVSS
# VL: DIRLTQSPSPLSASVGDRVTITCRASQSIGNYLNWYQHKPGKAPKLLIYAASSLQSGVPSRFSGTGSGTDFTLTISSLQPEDFATYYCQESYSLIFAGGTKVEIK
# B3: AE11-7 (antibody, V domains shown)
# VH: EVQLVQSGAEVKKPGASVKVSCKTSGYSLTQYPIHWVRQAPGQRPEWMGWISPGNGNTKLSPKFQGRVTLSRDASAGTVFMDLSGLTSDDTAVYFCTSVDLGDHWGQGTLVTVSS
# VL: DIVMTQSPEFQSVTPKEKVTITCRASQSIGSSLHWYQQKPDQSPKLLINYASQSFSGVPSRFSGGGSGTDFTLTINSLEAEDAATYYCHQSSNLPITFGQGTRLEIK
# B4: AE11-1 (antibody, V domains shown)
# VH: EVQLVQSGAEVKKPGASVKVSCKASGYTFTSYDVNWVRQATGQGLEWMGWMNPNSGNTGYAQKFQGRVTITADESTSTAYMELSSLRSEDTAVYYCAIFDSDYMDVWGKGTLVTVSS
# VL: SYELTQPPSVSLSPGQTARITCSGDALPKQYAYWYQQKPGQAPVLVIYKDTERPSGIPERFSGSSSGTTVTLTISGAQAEDEADYYCQSADSSGTSWVFGGGTKLTVL
# Molecular target: human TNF-α (human) (UniProt P01375)
# Experiment: in vitro display selection on recombinant human TNF
row,binding,Binder
1,binds,B1
2,binds,B2
3,binds,B3
4,binds,B4
